Measurements as given in the supplement of paper PMC4604168 (melanoma cell lines).
The list shows a part of the results. Single values are uncertain, as repeats are few or missing.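 Imaging used 1,536-well plates; nuclei positive for cleaved PARP by antibody were divided by total DNA-stained nuclei to yield the apoptosis fraction. Doses for screening kept most cells viable, and cell lines differ markedly in resting and induced cleaved-PARP levels.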

system: COLO792; experiment: cleaved PARP positive nuclei fraction relative to DMSO control; melanoma cells; higher = more apoptosis; settings: library dose: low library concentration; 72 h

Q: With `CCc1ccc(CCOc2ccc(CC3SC(=O)NC3=O)cc2)nc1` (stereo unspecified) [pioglitazone] + COc1ccc(COc2ccc(Cc3cnc(N)nc3N)cc2OC)cc1 [GW2580] (first compound 2 µM, partner dose 1 µM) as the compound, how does the “cleaved PARP positive nuclei fraction” value read?
A: 59%

Q: With `COc1cc2c(Oc3ccc4[nH]c(C)cc4c3F)ncnc2cc1OCCCN1CCCC1` [cediranib] + CCc1ccc(CCOc2ccc(CC3SC(=O)NC3=O)cc2)nc1 [pioglitazone] (first compound 0.4 µM, partner dose 2 µM) as the compound, how does the “cleaved PARP positive nuclei fraction” value read?
A: 111%

Q: For `COc1ccc(-c2ccc3c(N4CCOCC4)nc(N4C[C@@H](C)O[C@@H](C)C4)nc3n2)cc1CO` + COc1cc2ncnc(Nc3ccc(Oc4ccccc4)cc3)c2cc1OC [SrcI1] (first compound 0.02 µM, partner dose 2 µM), which “cleaved PARP positive nuclei fraction” value is on record?
A: 94.5%

Q: How did the “cleaved PARP positive nuclei fraction” value turn out when `O=C(O)c1ccc(-c2c[nH]c3ncc(-c4ccccc4)cc23)cc1C1CCCC1` + O=S(=O)(c1ccccc1)N(CC(F)(F)F)c1ccc(C(O)(C(F)(F)F)C(F)(F)F)cc1 [T0901317] (first compound 0.16 µM, partner dose 1.4 µM) was run?
A: 41.6%

Q: `COc1ccc(-c2ccc3c(N4CCOCC4)nc(N4C[C@@H](C)O[C@@H](C)C4)nc3n2)cc1CO` + CCN(CC)CCCCNc1ncc2cc(-c3cc(OC)cc(OC)c3)c(NC(=O)NC(C)(C)C)nc2n1 [PD173074] (first compound 0.02 µM, partner dose 0.1 µM) was tested. Which “cleaved PARP positive nuclei fraction” value did it give?
A: 138%

Q: How did the “cleaved PARP positive nuclei fraction” value turn out when `Oc1cc(-c2nc(-c3ccccc3)[nH]c2-c2ccncc2)ccc1Cl` + O=C1NC(=O)/C(=C/c2ccc(-c3ccc(F)cc3O)o2)S1 [AS252424] (first compound 0.2 µM, partner dose 1 µM) was run?
A: 98.5%
